Results on five compounds are retold here after paper PMC10290130, “The potential of phenothiazinium dyes as cytotoxicity markers in cisplatin-treated cells” (Scientific Reports, 2023).

Data set [1] has as its system Vero cells. In words: Light microscopy of phenothiazinium dye accumulation in cells. As to conditions: light microscope, 3 h; for pattern of dye accumulation in cells: 100-12.5 µM. The class given is cell-based, African green monkey. As to the method:
The accumulation of phenothiazine dyes in cells was detected by light and confocal microscopies. Firstly, Vero cells were incubated with MB, NMB, TBO, and DMMB (100, 50, 25 and 12.5 µM) for 3 h, 37 °C, 5% CO2 and washed with PBS. […] For confocal detection of phenothiazinium dyes, Vero cell cultures were incubated with 10 μM of MB, NMB, TBO or DMMB for 30 min, 37 °C, with 5% CO2. For all procedures, non-treated controls were incubated with RPMI under the same conditions. The cultures were washed with PBS and treated with trypsin for 10 min, 37 °C and 5% CO2. The cells were transferred to slides and analyzed by confocal microscopy with excitation/emission wavelengths of 543/600 nm, respectively.

Data set [2] has as its system Vero cells. Description: Visible spectra of cell extracts, area under the spectral curve (intracellular dye). The note with it: 380-800 nm.
Data set [3] relates to Vero cells. In words: Sensitivity assay for the detection of phenothiazinium dyes in cells. The class given is cell-based, African green monkey. As to conditions: for minimum limit for detection of dye in cells (detected in concentrations above): 3 h incubation, 96-well monolayer.
[4] abbreviates: dye at 100 µM, calculated using the linear regression equation.

Several values for one entry are separate records, joined by “and”; a condition that tells them apart may be missing. Equal entries are not always repeated. A value given as a limit tells only on which side of the number the result lay.

Consider `Cc1cc2nc3ccc(N(C)C)cc3nc2cc1N.Cl` [NR, 3-amino-7-dimethylamino-2-methylphenazine hydrochloride], for which the “localisation of dye in cells” value in data set [1] is “accumulated mostly in the cell cytoplasm”. In addition, the “area under the absorbance curve of cell extract” value (from here on “area under the absorbance curve”) in data set [2] (1 h, dye 100 µM (NR 173 µM)) turned out to be 5.5; in data set [2] (4 h, dye 100 µM (NR 173 µM)) it was 10.96.

Turning to `CCNc1cc2[s+]c3cc(NCC)c(C)cc3nc2cc1C.[Cl-]` [NMB, 3,7-bis(ethylamino)-2,8-dimethylphenothiazin-5-ium chloride], in data set [1], the “pattern of dye accumulation in cells” value is on record as “stained uniformly”. Besides, the “localisation of dye in cells” value in data set [1] was “found in the cell cytoplasm”. Further, in data set [3], the “minimum limit for detection of dye in cells (detected in concentrations above)” value (from here on “minimum limit for detection of dye”) is greater than 7.8 µM. Also, the “absorbance of extracted dye” value in data set [3] (setting [4]) was 0.39. Further, the “area under the absorbance curve” value in data set [2] (1 h, dye 100 µM (NR 173 µM)) was 14.3; in data set [2] (2 h, dye 100 µM), 17.3; in data set [2] (3 h, dye 100 µM), 19.9; in data set [2] (4 h, dye 100 µM (NR 173 µM)) it was 20.5.

Turning to `Cc1cc2nc3ccc(N(C)C)cc3[s+]c2cc1N.[Cl-]` [TBO, 3-amino-7-(dimethylamino)-2-methylphenothiazin-5-ium chloride], the “pattern of dye accumulation in cells” value in data set [1] is reported as “heterogeneous accumulation pattern”. Also, the “localisation of dye in cells” value in data set [1] is reported as “affinity to large nucleoli”. For the same compound, the “concentration up to which absorbance/concentration correlation was observed” value in data set [3] (3 h) is listed as no more than 62 µM. For the same compound, in data set [3], the “minimum limit for detection of dye” value is > 15.6 µM and > 31.2 µM. Moreover, the “absorbance of extracted dye” value in data set [3] (setting [4]) is recorded as 0.35; in data set [3] (dye at 125 µM, 3 h), 0.29. In addition, the “area under the absorbance curve” value came to 10.63 in data set [2] (1 h, dye 100 µM (NR 173 µM)); 11.87 in data set [2] (2 h, dye 100 µM); 13.58 in data set [2] (3 h, dye 100 µM); 13.97 in data set [2] (4 h, dye 100 µM (NR 173 µM)).

For the compound `Cc1cc(N(C)C)cc2[s+]c3cc(N(C)C)cc(C)c3nc12.[Cl-]` [DMMB, 3,7-bis(dimethylamino)-1,9-dimethylphenothiazin-5-ium chloride], the “pattern of dye accumulation in cells” value in data set [1] is reported as “stained uniformly”. In data set [1], the “localisation of dye in cells” value is “found in the cell cytoplasm”. Moreover, the “minimum limit for detection of dye” value in data set [3] is recorded as greater than 7.8 µM. The “absorbance of extracted dye” value in data set [3] (setting [4]) is recorded as 0.50; in data set [3] (dye at 125 µM, 3 h), 0.53. Also, the “area under the absorbance curve” value in data set [2] (1 h, dye 100 µM (NR 173 µM)) worked out at 13.3; in data set [2] (2 h, dye 100 µM), 17.7; in data set [2] (3 h, dye 100 µM) it was 19.6; in data set [2] (4 h, dye 100 µM (NR 173 µM)) it was 21.9.

For the compound `CN(C)c1ccc2nc3ccc(N(C)C)cc3[s+]c2c1.[Cl-]` [MB, 3,7-bis[dimethylamino]phenothiazin-5-ium chloride], in data set [1], the “pattern of dye accumulation in cells” value was “heterogeneous accumulation pattern”. Besides, the “absorbance of extracted dye” value in data set [3] (setting [4]) is reported as 0.34. The “area under the absorbance curve” value came to 8.25 in data set [2] (1 h, dye 100 µM (NR 173 µM)); 9.84 in data set [2] (2 h, dye 100 µM); 10.38 in data set [2] (3 h, dye 100 µM); 12.10 in data set [2] (4 h, dye 100 µM (NR 173 µM)).
